In paper PMC4801420:
These are yes or no findings as the source states them, for the method shown. Some entries that bind do so weakly or less than the wild type.

Amino acid sequences for entries named in this document (tags omitted). Residues count along the entry.
UniProt Q9EPN1, residues 2137-2936: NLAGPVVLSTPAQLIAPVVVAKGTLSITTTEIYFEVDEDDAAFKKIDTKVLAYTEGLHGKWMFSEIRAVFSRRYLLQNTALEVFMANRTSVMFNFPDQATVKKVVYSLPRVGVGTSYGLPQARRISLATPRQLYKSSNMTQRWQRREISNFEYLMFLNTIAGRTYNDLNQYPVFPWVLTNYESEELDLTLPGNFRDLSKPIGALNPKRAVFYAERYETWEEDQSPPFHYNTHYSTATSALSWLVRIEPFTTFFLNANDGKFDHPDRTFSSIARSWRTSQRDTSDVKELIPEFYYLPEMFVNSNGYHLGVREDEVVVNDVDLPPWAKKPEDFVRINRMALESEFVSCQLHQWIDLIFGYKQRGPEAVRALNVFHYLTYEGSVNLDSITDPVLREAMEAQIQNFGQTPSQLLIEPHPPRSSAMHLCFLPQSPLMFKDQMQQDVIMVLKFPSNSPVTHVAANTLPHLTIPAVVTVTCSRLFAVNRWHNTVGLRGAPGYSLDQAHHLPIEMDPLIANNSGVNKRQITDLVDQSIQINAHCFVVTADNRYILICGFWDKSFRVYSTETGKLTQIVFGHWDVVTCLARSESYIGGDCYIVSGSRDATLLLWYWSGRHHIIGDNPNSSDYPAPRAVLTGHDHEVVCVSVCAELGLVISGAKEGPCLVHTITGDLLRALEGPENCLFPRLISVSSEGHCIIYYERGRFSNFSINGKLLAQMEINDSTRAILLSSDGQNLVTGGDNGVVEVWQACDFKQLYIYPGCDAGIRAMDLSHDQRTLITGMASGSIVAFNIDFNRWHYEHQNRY
UniProt Q01705, residues 2223-2457: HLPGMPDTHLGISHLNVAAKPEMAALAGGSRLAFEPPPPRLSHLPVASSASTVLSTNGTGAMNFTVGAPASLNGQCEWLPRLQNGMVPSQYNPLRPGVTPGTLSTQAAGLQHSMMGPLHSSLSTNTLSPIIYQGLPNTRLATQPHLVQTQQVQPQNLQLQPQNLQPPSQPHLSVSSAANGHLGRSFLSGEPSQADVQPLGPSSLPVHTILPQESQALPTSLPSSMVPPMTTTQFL

Biological target: NBEA PBW domain module (PH-like-BEACH-WD40), yeast two-hybrid bait (mouse) (UniProt Q9EPN1)
Assay: two-hybrid; library screen by Hybrigenics Services: bait pB27-PBW in the L40ΔGal4 yeast strain, against a mouse embryonic (E10.5 and E12.5) brain cDNA library

NOTCH1 intracellular domain (NICD) prey fragment His2223-Leu2457 (from UniProt Q01705 2223-2457) (domain or fragment)
binding: binds
